Measured values as given in PubChem BioAssay AID2685 (National Center for Advancing Translational Sciences (NCATS), 2010).
The list shows a part of the results. The main result of the screen is listed elsewhere. These columns were measured beside it and carry no call. Most of these compounds were active or inconclusive in the main read-out, so they are no random draw. Words in brackets tell the shape of the fitted curve; partial curves, single points and poor fits give uncertain potencies. Where a SMILES comes first, the peptide text is derived from it. The star is where a group is joined. Cbz = O=C(OCc1ccccc1)*; Boc = CC(C)(C)OC(=O)*

Assay: qHTS Assay for Lipid Storage Modulators in Drosophila S3 Cells;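 as to cell number change: cells counted by Cell Tracker Red CMTPX staining in the red channel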
Details: BODIPY lipid droplet fluorescence, 18-24 h; for cell number change: measured here: cell count max response, cells fed with added oleic acid
In short: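 Laser-scanning cytometry quantifies lipid droplet accumulation (500–530 nm total intensity; droplet/cell object ratio) in oleic acid-fed (400 uM added) Drosophila S3 cells treated with a concentration series. 20 uM Triacsin C defined 100% inhibition.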

[1] = measured here: lipid fluorescence (Fed channel) AC50, cells fed with added oleic acid
[2] = measured here: cell number channel AC50, cells fed with added oleic acid

COc1ccc2c(c1)CC/C(=C\C=C\c1ccccc1OC)C2=O
cell number change: -22.6%
AC50 [1]: 29.1 µM [falling, single point]

Cc1cc(C)nc(SCCc2ccncc2)n1
AC50 [1]: 0.58 µM [rising, single point]

COc1cccc(OCC(O)CO)c1 (stereo unspecified)
cell number change: 15.2%
AC50 [1]: 0.461 µM [falling, full curve, poor fit]

COc1ccc(OC)c(/C=N/c2c(-c3ccc(O)c(OC)c3)nc3ccccn23)c1
cell number change: -32.5%
AC50 [2]: 16.4 µM [falling, single point]
AC50 [1]: 16.4 µM [falling, single point]

Cc1cc(-c2ccc(S(=O)(=O)N3CCCCC3)s2)on1
cell number change: 4.18%
AC50 [2]: 0.92 µM [rising, full curve, poor fit]

Cc1cc(S(=O)(=O)N2CCOCC2)ccc1OCC(=O)NCC1CCCO1 (stereo unspecified)
cell number change: -6.67%
AC50 [1]: 29.1 µM [falling, partial curve, poor fit]

CC(=O)Nc1ccc(OCCOc2ccc(/C=C3/C(=N)N4C=CSC4=NC3=O)cc2)cc1
cell number change: -48.8%
AC50 [2]: 5.17 µM [falling, partial curve]
AC50 [1]: 2.59 µM [falling, full curve]

O=C(Nc1ccc(C(=O)O)cc1)Nc1cccc([N+](=O)[O-])c1
cell number change: -4.82%
AC50 [1]: 6.51 µM [falling, single point]

CC1N=C(N)C(c2nc3ccccc3n2C)=C1O (stereo unspecified)
cell number change: 4.42%
AC50 [2]: 4.11 µM [rising, single point]

Cc1ccc2nc(SCC(=O)N3CC(C)OC(C)C3)nc(=O)n2c1 (stereo unspecified)
cell number change: 20.1%

Cc1ccc(NC(=O)CN2C(=O)N/C(=C/c3ccc(C)o3)C2=O)cc1
cell number change: -30.6%
AC50 [1]: 32.6 µM [falling, single point]

CC(C)c1nnc(NC(=O)CCC(=O)N2CCN(c3ccccc3F)CC2)s1
cell number change: -13.9%
AC50 [1]: 4.11 µM [falling, partial curve, poor fit]

CC1CN(C(=O)c2cc3cc([N+](=O)[O-])ccc3s2)CC(C)O1 (stereo unspecified)
cell number change: -82.5%
AC50 [1]: 0.731 µM [rising, single point]

O=C(c1cc(COc2ccc(F)cc2F)on1)N1CCSCC1
cell number change: -9.85%
AC50 [1]: 0.0231 µM [falling, full curve, poor fit]

O=c1[nH]cc(COCc2ccccc2)c(=O)[nH]1
cell number change: -10.9%

COc1cc(C2c3c(-c4ccccc4)n[nH]c3C(=O)N2c2ccccc2)ccc1O (stereo unspecified)
cell number change: 0.453%

COc1cccc(N=Cc2ccc(O)cc2O)c1
cell number change: 46.6%
AC50 [2]: 29.1 µM [rising, single point]

CC(C)(C)OC(=O)NCCCC[C@H](NC(=O)[C@H](Cc1c[nH]c2ccccc12)NC(=O)OCc1ccccc1)C(=O)O (Cbz-Trp-Lys(Boc)-OH)
cell number change: 6.94%
AC50 [1]: 6.51 µM [falling, single point]

CCNc1nc(NCc2ccccc2)nc(SCC(=O)Nc2ccccc2)n1
cell number change: -28.3%
AC50 [1]: 20.6 µM [falling, single point]

N#Cc1c(N)c2ccccn2c1C(=O)c1ccc(Br)cc1
cell number change: 31.9%
AC50 [2]: 16.4 µM [rising, single point]
AC50 [1]: 29.1 µM [rising, single point]

COc1ccc(C)cc1NS(=O)(=O)c1ccc2c(c1)n(C)c(=O)n2C
cell number change: 10.5%

CCOC(=O)c1cc(CC)sc1NC(=O)COC(=O)c1ccccn1
cell number change: 38%

Cc1ccc(S(=O)(=O)NCC(=O)N(c2ccccc2)C(C(=O)NCc2ccccc2)c2ccco2)cc1 (stereo unspecified)
cell number change: 13.2%
AC50 [1]: 16.4 µM [rising, single point]

CC1(C)CC(C)(c2ccc(O)cc2O)N(c2cccc(Cl)c2)C(=S)N1 (stereo unspecified)
cell number change: -26.5%
AC50 [1]: 29.1 µM [falling, single point]

S=c1[nH]c2cc(Cl)c3cccnc3c2o1
cell number change: 9.12%

CCCCOCC1CC(CC#CCN2CCCCC2)C(=O)O1 (stereo unspecified)
cell number change: -21.2%
AC50 [1]: 20.6 µM [falling, single point]

Cc1ccc(OCC(=O)N2N=C(C(F)(F)F)CC2(O)C(C)(C)C)cc1C (stereo unspecified)
cell number change: -61.2%
AC50 [1]: 0.259 µM [falling, full curve, poor fit]

CCOC(=O)C1(Cc2cccc(Cl)c2)CCCN(C(=O)c2cc(C)[nH]n2)C1 (stereo unspecified)
cell number change: 5.2%
AC50 [1]: 0.00517 µM [falling, full curve, poor fit]

COc1ccc(C(=O)COC(=O)c2c(-c3ccccc3)noc2C)c(OC)c1
AC50 [2]: 4.61 µM [rising, single point]

COc1ccc(/C=N/Nc2ncnc3scc(-c4ccccc4)c23)cc1OC
cell number change: -5.13%
AC50 [1]: 0.517 µM [rising, full curve]

O=C(NNc1ccc(Cl)cc1)c1sccc1Cl
cell number change: 2.38%
AC50 [2]: 0.146 µM [falling, full curve, poor fit]

Cc1cccc(NC(=O)Nc2cccc(F)c2)n1
AC50 [1]: 0.058 µM [rising, full curve, poor fit]

Cc1c(C(=O)OCC(=O)N2CCCCC2C)oc2ccccc12 (stereo unspecified)
cell number change: -31.2%
AC50 [2]: 0.184 µM [falling, full curve, poor fit]
AC50 [1]: 0.461 µM [falling, partial curve]

CCc1ccc(N2C(=O)C3C4CCC(C4=C(C)C)C3C2=O)cc1 (stereo unspecified)
cell number change: -8.04%
AC50 [1]: 0.00517 µM [rising, full curve, poor fit]

COc1ccc(NC(C)=O)cc1NC(=O)CSc1nnc(-c2ccccn2)n1C
cell number change: 20.4%
AC50 [1]: 13 µM [rising, partial curve]

Nc1nccnc1C(=O)OCC(=O)C12CC3CC(CC(C3)C1)C2
cell number change: -29.7%
AC50 [1]: 5.8 µM [falling, full curve]

COc1ccc(NC(=O)c2c(-c3c(Cl)cccc3Cl)noc2C)c(OC)c1
cell number change: 14.3%

Cc1cc(=O)oc2cc(OCC(O)CN3CCN(c4ccc(F)cc4)CC3)ccc12 (stereo unspecified)
cell number change: -0.524%

CC(C)C(NC(=O)c1ccc(F)cc1)C(=O)NCC1CCCO1 (stereo unspecified)
cell number change: -53.8%
AC50 [2]: 29.1 µM [falling, single point]

CCCCOc1ccc2c(c1)C(=O)c1cc(O)ccc1-2
cell number change: -23.7%
AC50 [1]: 29.1 µM [falling, single point]

COC(=O)Nc1ccc(S(=O)(=O)N2CCC(C(=O)N3CCC(C)CC3)CC2)cc1
cell number change: 17.2%
AC50 [2]: 0.651 µM [rising, single point]
AC50 [1]: 0.366 µM [rising, single point]

O=C(NCCc1ccccc1)/C(=C\c1ccc([N+](=O)[O-])cc1)NC(=O)c1ccc(Br)cc1
cell number change: -0.548%
AC50 [1]: 0.291 µM [rising, single point]

CCOc1ccc(CCNC(=O)COC(=O)c2sccc2C)cc1OCC
cell number change: -65.9%
AC50 [2]: 1.16 µM [falling, full curve]
AC50 [1]: 16.4 µM [falling, partial curve]

Cc1cc(-c2csc(N)n2)c(C)n1Cc1ccco1
cell number change: 68.5%
AC50 [1]: 5.8 µM [falling, single point]

CCOC(=O)CNc1nnc(SCC(=O)OCC)[nH]c1=O
cell number change: -23.4%

COc1ccc(C(=O)CSc2ncn[nH]2)cc1OC
cell number change: -5.1%

O=C(C1CCOCC1)N1CCCC(N2CCN(c3ccc(F)cc3)CC2)C1 (stereo unspecified)
AC50 [1]: 29.1 µM [rising, single point]

COc1cccc(CNC(=O)C2CCN(S(=O)(=O)c3ccc4c(c3)CC(C)N4C(=O)C3CC3)CC2)c1 (stereo unspecified)
cell number change: 2.09%
AC50 [1]: 0.651 µM [rising, full curve]

Cc1ccc(S(=O)(=O)N2CCC(C(=O)OCC(=O)N3CCCCC3C)CC2)cc1C (stereo unspecified)
cell number change: -28.4%
AC50 [2]: 0.58 µM [falling, full curve, poor fit]
AC50 [1]: 20.6 µM [falling, partial curve]

O=C(CCC1CCCN(C(=O)c2ccc3c(c2)OCO3)C1)NCc1ccc(F)c(F)c1 (stereo unspecified)
cell number change: -50.6%
AC50 [2]: 1.46 µM [falling, full curve]
AC50 [1]: 23.1 µM [falling, partial curve]

Cc1ccc(C(=O)c2coc3ccc(O)c(CN4CCN(C)CC4)c23)cc1
cell number change: -22.5%
AC50 [1]: 0.116 µM [rising, full curve]

Cc1ccc(C)c(S(=O)(=O)N2CCCCC2CCNC(=O)C(=O)NC2CC2)c1 (stereo unspecified)
cell number change: -8.09%
AC50 [1]: 20.6 µM [falling, single point]

O=C(Nc1cccc(S(=O)(=O)N2CCCCC2)c1)c1ccccc1NS(=O)(=O)c1ccc(F)cc1
cell number change: -31%
AC50 [2]: 16.4 µM [falling, single point]
AC50 [1]: 14.6 µM [falling, partial curve]

O=C(CSc1ccccc1)NCCSCc1ccccc1
cell number change: 5.26%

COC(=O)c1ccc(NC(=O)c2ccccc2CC[N+](=O)[O-])cc1
cell number change: 50.1%
AC50 [2]: 16.4 µM [rising, partial curve]

NC(=O)C1CCN(C(=O)C2CC(=O)N(c3ccc4c(c3)OCCO4)C2)CC1 (stereo unspecified)
cell number change: -23.5%
AC50 [1]: 0.731 µM [falling, full curve]

COc1ccc(-c2nc(CS(=O)CC(=O)NCCCN3CCCC(C)C3)c(C)o2)cc1OC (stereo unspecified)
cell number change: 1.52%
AC50 [1]: 20.6 µM [rising, partial curve, poor fit]

N/C(=N\OC(=O)c1cccc2ccccc12)c1ccc(Br)cc1
AC50 [1]: 29.1 µM [falling, single point]

CCc1ccc(-c2cc3c(=O)n(CC(=O)N4CCCC4)nc(C)n3n2)cc1
cell number change: 29.6%
AC50 [1]: 14.6 µM [rising, partial curve]

COC(=O)COc1ccc(=O)n(-c2ccccc2)n1
cell number change: -27.5%
AC50 [1]: 18.4 µM [falling, partial curve]

N#CC1(NC(=O)CN2C(=O)c3ccc([N+](=O)[O-])cc3C2=O)CCCCC1
AC50 [1]: 6.51 µM [falling, single point]

CCN(CC)C(=O)C1CCCN(Cc2ccc(F)c(F)c2)C1 (stereo unspecified)
cell number change: 3.44%
AC50 [1]: 29.1 µM [rising, single point]
